PubChem BioAssay AID1671195, Yale University – 2021
Test: 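Knockdowns that increase or decrease uptake of fluorescent LDL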 (primary screen). Cell system: human Huh7 hepatoma cells. Reagent: siRNA pool against human genes, 18 nM. Duration: about 2 to 2.5 days of knockdown, then 8 h LDL uptake. Conditions: DiI-labelled LDL at 30 µg/ml for 8 h, in lipoprotein-deficient serum medium. Measured: 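Per-cell DiI-LDL intensity by automated imaging; well means scaled to the plate median and given as a robust z-score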. Scale: robust z-score: higher = more LDL uptake after knockdown. Active means: 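Active when two or more replicates show a robust z-score above 2 or below -2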.
Here is a random part of about 22,000 reagents tested. Of all reagents, about 1,510 (6.9%) got an active call. 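Active includes knockdowns raising or lowering LDL uptake; positive z-scores mean more uptake, negative mean less.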

target	robust z-score, replicate 1	robust z-score, replicate 2	robust z-score, replicate 3	call
MFSD11	-1.37	-1.01	-1.06	inactive
NAP1L2	1.32	1.97	1.81	inactive
THEMIS	0.445	0.145	0.453	inactive
PTAFR	0.0891	0.285	-0.0352	inactive
ZFP28	0.733	1.21	0.566	inactive
DRAXIN	-0.503	-0.0452	0.0135	inactive
YIPF6	0.337	0.409	0.564	inactive
GDE1	0.887	-0.424	0.363	inactive
LIMS1	1.77	1.22	0.545	inactive
TERT	-1.09	-1.27	-0.87	inactive
DDA1	0.417	0.223	0.878	inactive
LOC401954 (retired record)	0.0176	0.119	-0.394	inactive
COBL	0.885	0.252	1.76	inactive
CHADL	-1.21	-1.85	-1.32	inactive
ZBTB10	-1.1	-1.13	-1.34	inactive
CLEC3A	-0.313	-1.08	-1.17	inactive
FKBP7	3.28	3.48	2.74	active
POLDIP2	-0.313	-0.622	1.03	inactive
TMEM176B	0.0619	-1.09	0.879	inactive
FAM20C	-1.14	0.43	0.258	inactive
LOC441347 (retired record)	-0.304	-0.274	-0.0477	inactive
SIRPB2	-0.688	-0.646	-0.312	inactive
SOCS5	-2.09	-1.64	-2.38	active
VMP1	-0.887	-1	-0.287	inactive
DOCK9	-0.921	1.14	-1.53	inactive
WT1	-0.0643	-0.232	-0.423	inactive
CDC23	1.27	0.614	0.996	inactive
PNLIPRP1	0.339	1.02	1.25	inactive
ACTL9	2.52	2.06	2.15	active
CTRC	0.334	-2.29	-2.27	active
GJA8	-0.193	-0.706	-0.308	inactive
S100A7A	-0.192	-0.667	-1.13	inactive
H2AC13	-1.61	0.51	-1.2	inactive
GNG5	-0.69	-0.493	-0.419	inactive
CMA1	-1.22	-0.858	-0.872	inactive
SLAIN2	-0.201	0.831	1.9	inactive
KCNJ1	0.419	0.675	0.526	inactive
KLHL41	-0.405	-0.0263	-0.000182	inactive
SDK1	0.929	1.33	1.48	inactive
CCNG1	-0.754	0.447	-0.174	inactive
AIFM3	-0.754	0.257	-0.21	inactive
ARGLU1-DT	-0.812	-0.835	-0.79	inactive
LINC00863	-0.488	-0.122	-0.239	inactive
LTB	0.326	0.726	0.827	inactive
NUDT7	2.03	2.41	1.55	active
CHSY1	-0.117	-0.191	0.179	inactive
RRM2B	1.97	1.77	-0.564	inactive
ATP1B1	1.35	0.55	0.874	inactive
UMOD	-1.03	-1.42	-2.15	inactive
LOC390736 (retired record)	-0.259	0.0413	0.17	inactive
PIGF	-0.396	-0.167	-0.14	inactive
TMED10	-0.831	0.838	-0.78	inactive
LINC00965	2.66	2.32	2.49	active
KCND1	-1.88	-1.76	-1.95	inactive
SFXN5	-0.809	-0.861	-0.752	inactive
GAS6	0.657	3.42	1.19	inactive
GJD2	0.0954	-0.365	-0.292	inactive
ETFB	-0.511	0.0142	-0.835	inactive
TPTE2	0.298	1.08	1.07	inactive
IL12A	-0.45	-0.349	-0.971	inactive
HEATR9	0.297	0.118	0.365	inactive
AKAP12	-0.0979	-0.547	-1.02	inactive
SPRR4	0.919	0.617	1.01	inactive
AVPR1A	0.414	-0.125	-0.187	inactive
SHISA7	-0.699	-0.938	-0.35	inactive
TOB1	1.81	0.889	0.744	inactive
OR52B2	-0.0248	0.123	0.088	inactive
LINC02167	1.36	1.07	1.06	inactive

10 of these entries, reformatted:
{"target": "SDK1", "robust z-score, replicate 1": 0.929, "robust z-score, replicate 2": 1.33, "robust z-score, replicate 3": 1.48, "call": "inactive"}
{"target": "CCNG1", "robust z-score, replicate 1": -0.754, "robust z-score, replicate 2": 0.447, "robust z-score, replicate 3": -0.174, "call": "inactive"}
{"target": "AIFM3", "robust z-score, replicate 1": -0.754, "robust z-score, replicate 2": 0.257, "robust z-score, replicate 3": -0.21, "call": "inactive"}
{"target": "ARGLU1-DT", "robust z-score, replicate 1": -0.812, "robust z-score, replicate 2": -0.835, "robust z-score, replicate 3": -0.79, "call": "inactive"}
{"target": "LINC00863", "robust z-score, replicate 1": -0.488, "robust z-score, replicate 2": -0.122, "robust z-score, replicate 3": -0.239, "call": "inactive"}
{"target": "LTB", "robust z-score, replicate 1": 0.326, "robust z-score, replicate 2": 0.726, "robust z-score, replicate 3": 0.827, "call": "inactive"}
{"target": "NUDT7", "robust z-score, replicate 1": 2.03, "robust z-score, replicate 2": 2.41, "robust z-score, replicate 3": 1.55, "call": "active"}
{"target": "CHSY1", "robust z-score, replicate 1": -0.117, "robust z-score, replicate 2": -0.191, "robust z-score, replicate 3": 0.179, "call": "inactive"}
{"target": "RRM2B", "robust z-score, replicate 1": 1.97, "robust z-score, replicate 2": 1.77, "robust z-score, replicate 3": -0.564, "call": "inactive"}
{"target": "ATP1B1", "robust z-score, replicate 1": 1.35, "robust z-score, replicate 2": 0.55, "robust z-score, replicate 3": 0.874, "call": "inactive"}
